The values that follow come from PMC6763788.

The target in this experiment is T1, Flag-RITA (UniProt Q96K30).
T1 sequence: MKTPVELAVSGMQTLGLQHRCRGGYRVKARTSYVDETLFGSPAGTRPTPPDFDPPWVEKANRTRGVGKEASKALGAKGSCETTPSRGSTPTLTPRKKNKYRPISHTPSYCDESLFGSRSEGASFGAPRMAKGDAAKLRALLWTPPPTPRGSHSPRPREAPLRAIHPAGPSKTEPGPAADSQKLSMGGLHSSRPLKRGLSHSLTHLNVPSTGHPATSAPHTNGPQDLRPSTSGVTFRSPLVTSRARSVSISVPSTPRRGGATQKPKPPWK
The experiment is described as follows: co-IP; HeLa cells transfected with Flag empty vector or Flag-RITA; lysates in RIPA buffer (600-800 µg); Flag-M2 affinity gel, 4 °C overnight, washed three times; western blot. In general terms: In western blotting, separated proteins are transferred to a membrane and probed.

No constants are given. Whether binding was seen depends on the method and setting. Binding seen in cells or lysates may run through a third protein. Binding calls can cover weak binding; strength is not graded here. Where a sequence is shown, tags or fusion partners need not be part of it.

On to α-tubulin (human (endogenous in HeLa)), for which the binding result is reported as “binds”.
